Data source: PubChem BioAssay AID686943 (Drosophila RNAi Screening Center, 2013)

Purpose: 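Fly genes whose loss alters ERK activation after insulin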 (primary screen)
Cells: Drosophila S2R+ haemocyte-like cells expressing YFP-tagged ERK (Rolled)
Reagent: long dsRNA against Drosophila genes
Challenge: insulin stimulation versus unstimulated cells; dose and duration not given
Measurement: 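Per-plate z-scores of phospho-ERK immunostaining normalised to YFP-tagged ERK, measured with and without insulin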
Scale: replicate 1, z-score of dpERK with insulin and replicate 2, z-score of dpERK with insulin: higher = more active ERK per ERK-YFP after insulin; replicate 1, z-score of dpERK under basal conditions: higher = more basal active ERK per ERK-YFP
The deposit covers about 23,000 reagents; shown is an unselected part of those with a known target gene and a result. 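Extra replicates exist only for a retested subset of genes; insulin dose and duration not given; both raised and lowered dpERK matter.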 A plus sign joins genes that one reagent is predicted to hit. Further read-outs or replicates are left out here. Not stated in the record: the amount of reagent, the time to read-out.

Target gene	amplicon	replicate 1, z-score of dpERK with insulin	replicate 2, z-score of dpERK with insulin	replicate 1, z-score of dpERK under basal conditions
mRpL32	DRSC14479	5.72	-1.21	-0.62
cyst	DRSC02023	-0.7	-0.25	0.15
CG3085	DRSC04335	0.24	-0.1	-0.06
Spn75F	DRSC09589	-0.48	0.22	1.42
CG9896	DRSC03962	-0.1	1.11	-1.82
CG9896	DRSC04594	-0.46	-0.08	1.42
akirin	DRSC11000	-1.77	-4.33	0
CG12725	DRSC19501	0.21	1.12	-0.6
l(2)k09022	DRSC02108	-0.52	-1.57	-0.15
Mgat1	DRSC07463	-0.36	0.01	0.66
Gdh	DRSC16679	0.61	-0.41	1.77
Rcd1	DRSC07116	-0.13	0.64	-0.16
CG14421	DRSC17918	1.04	-0.79	-0.24
Syn2	DRSC06902	1.41	0.3	0.77
Tim13	DRSC09848	-0.05	0.48	-0.24
CG12692	DRSC17881	0.16	-0.81	0.28
pr	DRSC03596	1.01	1.13	0.44
CG31086 + CG31323	DRSC14902	0.47	-0.05	0.52
CG9988	DRSC16587	-0.02	-0.32	1.36
CG7530	DRSC16255	0.08	-0.05	-0.14
Ggamma1	DRSC07435	0.54	0.76	1.93
Mvd	DRSC20096	-0.57	-0.23	-0.31
Hmt-1	DRSC15555	-0.76	-0.02	-0.48
Gpo2	DRSC06822	-0.41	-0.47	-1.16

The list goes on; the last 10 above are carried over.
Target gene	amplicon	replicate 1, z-score of dpERK with insulin	replicate 2, z-score of dpERK with insulin	replicate 1, z-score of dpERK under basal conditions
Tim13	DRSC09848	-0.05	0.48	-0.24
CG12692	DRSC17881	0.16	-0.81	0.28
pr	DRSC03596	1.01	1.13	0.44
CG31086 + CG31323	DRSC14902	0.47	-0.05	0.52
CG9988	DRSC16587	-0.02	-0.32	1.36
CG7530	DRSC16255	0.08	-0.05	-0.14
Ggamma1	DRSC07435	0.54	0.76	1.93
Mvd	DRSC20096	-0.57	-0.23	-0.31
Hmt-1	DRSC15555	-0.76	-0.02	-0.48
Gpo2	DRSC06822	-0.41	-0.47	-1.16
His-Psi:CR31754	DRSC22051	-2.85	-4.18	1.16
Dsor1	DRSC18462	-0.95	-1.47	-1.88
Grip128	DRSC20167	0.51	0.28	1.29
yellow-e3	DRSC15170	1.19	0.02	0.13
Task6	DRSC16530	0.66	1.07	-1.22
Nnp-1	DRSC02165	-0.84	1.44	-2.37
gl	DRSC16957	0.51	0.25	-1.42
CG7368	DRSC10826	-0.88	0.89	-1.3
CG7368	DRSC22821	0.54	0.51	-0.52
NitFhit	DRSC08680	1.46	1.35	-0.39
Sytalpha	DRSC02869	0.04	0.38	0.56
CG14445	DRSC17938	-0.14	-0.84	1.37
DJ-1alpha	DRSC07005	-0.21	-0.06	-0.68
Cirl	DRSC07227	-3.63	-4.15	-2.14
Cirl	DRSC21942	1.57	2.21	-3.18
CG13427	DRSC06389	-0.18	0.35	0.44
CG18273	DRSC18150	0.59	0.21	1.11
CG18273	DRSC18505	0.31	-0.08	-0.65
wcd	DRSC07051	0.25	0.22	0.19
Dnah3	DRSC08130	0.29	0.26	0.67
Dnah3	DRSC08513	-0.3	0.04	-0.28
CG8993	DRSC08616	0.09	0.51	0.5
prage	DRSC17957	0.38	3.43	0.8
prage	DRSC17958	-0.99	-1.86	-1.66
prage	DRSC18490	-0.8	0.16	1.34
prage	DRSC18497	0.42	0.37	-0.14
vers	DRSC10715	-0.44	-0.61	0.25
ATPsynG	DRSC02928	0.11	-1.66	0.21
CG32453	DRSC21673	0.27	0.29	0.13
PGRP-LD + Cralbp + Pmi	DRSC09743	0.68	-0.61	0.43
zyd	DRSC20716	-0.01	-0.27	-1.49
CG12259	DRSC14486	0.05	-0.02	0.6
CG6280	DRSC06972	-0.02	0.09	-0.22
Jheh2	DRSC06530	0.27	-0.15	-0.33
Bx	DRSC19350	-1.65	0.43	-1.52
Bx	DRSC19624	0.54	1.68	0.24
CG7239	DRSC03038	-0.58	-1.61	-1.01
unpg	DRSC07713	-0.59	1.23	-0.27
CG34193	DRSC05665	0.27	0.1	0.41
tsr	DRSC04718	1.33	0.76	-0.72
Dbp21E2	DRSC00616	0	-0.54	-0.32
ADD1	DRSC07135	1.25	0.63	-0.02
CG17141	DRSC15178	0.12	-0.25	-0.48
Efr	DRSC18322	0.06	-0.09	-0.29
CG13097	DRSC02199	-0.42	0.4	-0.47
sev	DRSC20372	0.28	0.06	0.06
CG10317	DRSC14229	-0.17	0.22	-0.2
CG8252	DRSC07126	-0.14	-0.1	0.07
CG15117	DRSC06539	-0.8	-1.29	-3.1
